Measurements taken from PMC12145424, “Structural insights into tRNA recognition of the human FTSJ1-THADA complex” (Communications Biology, 2025).
No constants are given. Whether binding was seen depends on the method and setting. In cells and extracts the contact can be indirect. A result given as binding can be weak or reduced; the word gives no strength.

The chains behind the UniProt entries cited, without tags or fusion partners. Where a name states a change or a piece, a line headed by the entry shows the natural chain unless it says otherwise.
UniProt Q6YHU6: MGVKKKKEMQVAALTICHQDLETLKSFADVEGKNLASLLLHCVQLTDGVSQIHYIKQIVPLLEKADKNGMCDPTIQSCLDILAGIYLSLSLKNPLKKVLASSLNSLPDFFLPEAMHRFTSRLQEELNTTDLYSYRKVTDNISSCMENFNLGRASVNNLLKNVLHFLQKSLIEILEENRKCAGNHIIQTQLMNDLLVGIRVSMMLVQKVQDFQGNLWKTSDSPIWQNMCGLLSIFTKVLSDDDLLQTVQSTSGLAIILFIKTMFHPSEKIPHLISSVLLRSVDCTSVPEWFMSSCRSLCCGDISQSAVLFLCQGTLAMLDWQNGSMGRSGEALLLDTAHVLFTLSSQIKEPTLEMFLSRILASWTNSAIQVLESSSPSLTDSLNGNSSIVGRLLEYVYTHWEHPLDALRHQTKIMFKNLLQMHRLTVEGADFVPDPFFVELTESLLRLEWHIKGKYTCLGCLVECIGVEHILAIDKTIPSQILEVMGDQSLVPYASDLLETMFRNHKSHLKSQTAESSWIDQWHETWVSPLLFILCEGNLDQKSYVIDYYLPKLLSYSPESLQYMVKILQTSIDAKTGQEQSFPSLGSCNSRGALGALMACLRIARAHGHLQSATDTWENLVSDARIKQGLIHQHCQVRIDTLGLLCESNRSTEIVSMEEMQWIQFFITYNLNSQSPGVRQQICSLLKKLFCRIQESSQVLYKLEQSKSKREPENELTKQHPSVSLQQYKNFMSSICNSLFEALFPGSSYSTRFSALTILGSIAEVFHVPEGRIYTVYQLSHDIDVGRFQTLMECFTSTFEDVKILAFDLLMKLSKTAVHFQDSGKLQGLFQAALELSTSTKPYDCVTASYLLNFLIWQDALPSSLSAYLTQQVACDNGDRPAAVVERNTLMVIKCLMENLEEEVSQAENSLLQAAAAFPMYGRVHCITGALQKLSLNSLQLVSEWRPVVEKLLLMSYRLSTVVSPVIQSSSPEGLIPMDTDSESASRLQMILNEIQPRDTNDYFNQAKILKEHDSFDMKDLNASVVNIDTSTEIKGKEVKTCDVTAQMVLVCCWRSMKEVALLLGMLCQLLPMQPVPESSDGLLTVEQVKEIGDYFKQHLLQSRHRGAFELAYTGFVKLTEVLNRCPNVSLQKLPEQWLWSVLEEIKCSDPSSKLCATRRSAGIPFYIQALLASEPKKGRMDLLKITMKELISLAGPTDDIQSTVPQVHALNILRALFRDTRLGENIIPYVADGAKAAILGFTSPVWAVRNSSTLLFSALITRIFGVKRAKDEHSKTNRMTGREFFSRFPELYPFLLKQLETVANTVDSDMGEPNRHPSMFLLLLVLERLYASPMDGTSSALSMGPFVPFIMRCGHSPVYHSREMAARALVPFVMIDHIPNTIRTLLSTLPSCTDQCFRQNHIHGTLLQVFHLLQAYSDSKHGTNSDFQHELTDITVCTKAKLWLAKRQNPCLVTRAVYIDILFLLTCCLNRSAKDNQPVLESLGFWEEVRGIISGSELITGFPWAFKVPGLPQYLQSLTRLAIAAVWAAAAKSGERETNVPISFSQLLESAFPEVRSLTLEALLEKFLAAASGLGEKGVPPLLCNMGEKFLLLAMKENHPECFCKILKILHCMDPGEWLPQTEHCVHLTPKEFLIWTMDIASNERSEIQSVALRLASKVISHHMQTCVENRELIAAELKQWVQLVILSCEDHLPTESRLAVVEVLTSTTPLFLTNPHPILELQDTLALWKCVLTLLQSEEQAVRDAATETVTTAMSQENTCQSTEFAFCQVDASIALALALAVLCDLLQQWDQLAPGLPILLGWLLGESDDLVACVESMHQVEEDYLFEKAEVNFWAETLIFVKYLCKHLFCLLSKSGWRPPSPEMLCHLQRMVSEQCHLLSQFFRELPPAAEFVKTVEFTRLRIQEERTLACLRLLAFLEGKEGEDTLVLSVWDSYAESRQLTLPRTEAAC

What was measured:
Assay in all cases: co-IP; 293FT cells transfected with FLAG-tagged THADA; lysate in 20 mM Tris-HCl pH 7.4, 150 mM NaCl, 1 mM EDTA, 1 mM EGTA, 0.01% Triton X-100; anti-FLAG M2 affinity gel; blot with anti-FLAG and anti-FTSJ1
[1] = molecular target: FLAG-tagged THADA mutant at Gln680 (human) (UniProt Q6YHU6)
[2] = molecular target: FLAG-tagged THADA mutant at Arg199 (human) (UniProt Q6YHU6)
[3] = molecular target: FLAG-tagged THADA mutant at Thr798 (human) (UniProt Q6YHU6)
[4] = molecular target: FLAG-tagged THADA mutant at Tyr843 (human) (UniProt Q6YHU6)

Measured: binding

B1: Human FTSJ1 (FLAG-tagged, co-expressed with THADA) (enzyme)
chain: MGRTSKDKRDVYYRLAKENGWRARSAFKLLQLDKEFQLFQGVTRAVDLCAAPGSWSQVLSQKIGGQGSGHVVAVDLQAMAPLPGVVQIQGDITQLSTAKEIIQHFKGCPADLVVCDGAPDVTGLHDVDEYMQAQLLLAALNIATHVLKPGGCFVAKIFRGRDVTLLYSQLQVFFSSVLCAKPRSSRNSSIEAFAVCQGYDPPEGFIPDLSKPLLDHSYDPDFNQLDGPTRIIVPFVTCGDLSSYDSDRSYPLDLEGGSEYKYTPPTQPPISPPYQEACTLKRKGQLAKEIRPQDCPISRVDTFPQPLAAPQCHTLLAPEMEDNEMSCSP
notes: FTSJ1, human; gene PCR-amplified and cloned into a modified pcDNA3.4 vector; no TEV cleavage step is described in the purification; also called Trm7 (yeast name); not shown: FLAG, N-terminal, kept
binds: all assays above
